The supplement of paper PMC8728848
The list shows a part of the results.

Assays:
Assay in all cases: glycan array binding signal (z-score within array); higher = stronger binding
Conditions in all cases: glycan notation: IUPAC condensed, linker removed
[1] = molecular target: Gal(b1-4)GlcNAc(b1-3)Gal(b1-4)GlcNAc(b1-2)Man(a1-3)[Gal(b1-4)GlcNAc(b1-3)Gal(b1-4)GlcNAc(b1-2)Man(a1-6)]Man(b1-4)GlcNAc(b1-4)[Fuc(a1-6)]GlcNAc
How it was run: (§1)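 Glycan array data were curated from 3228 arrays in the Consortium for Functional Glycomics database and kept only where the protein sequence was available. Glycan names were converted to IUPAC-condensed notation, and columns mapping to the same glycan were averaged. The binding signal is a within-array Z-score, averaged across arrays of the same protein sequence at different concentrations or buffers and across linkers. Negative Z-scores can be read as non-binding.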

[2] = molecular target: Gal(b1-4)GlcNAc(b1-3)Gal(b1-4)GlcNAc(b1-2)[Gal(b1-4)GlcNAc(b1-3)Gal(b1-4)GlcNAc(b1-6)]Man(a1-6)[Gal(b1-4)GlcNAc(b1-3)Gal(b1-4)GlcNAc(b1-2)Man(a1-3)]Man(b1-4)GlcNAc(b1-4)GlcNAc
How it was run: as §1

[3] = molecular target: Gal(b1-4)GlcNAc(b1-3)Gal(b1-4)GlcNAc(b1-2)[Gal(b1-4)GlcNAc(b1-3)Gal(b1-4)GlcNAc(b1-6)]Man(a1-6)[Gal(b1-4)GlcNAc(b1-3)Gal(b1-4)GlcNAc(b1-2)Man(a1-3)]Man(b1-4)GlcNAc(b1-4)[Fuc(a1-6)]GlcNAc
How it was run: as §1

[4] = molecular target: Gal(b1-4)GlcNAc(b1-3)Gal(b1-4)GlcNAc(b1-3)Gal(b1-4)GlcNAc
How it was run: as §1

[5] = molecular target: Gal(b1-4)GlcNAc(b1-3)Gal(b1-4)GlcNAc(b1-3)Gal(b1-4)GlcNAc(b1-2)Man(a1-3)[Gal(b1-4)GlcNAc(b1-3)Gal(b1-4)GlcNAc(b1-3)Gal(b1-4)GlcNAc(b1-2)Man(a1-6)]Man(b1-4)GlcNAc(b1-4)GlcNAc
How it was run: as §1

[6] = molecular target: Gal(b1-4)GlcNAc(b1-3)Gal(b1-4)GlcNAc(b1-3)Gal(b1-4)GlcNAc(b1-2)Man(a1-3)[Gal(b1-4)GlcNAc(b1-3)Gal(b1-4)GlcNAc(b1-3)Gal(b1-4)GlcNAc(b1-2)Man(a1-6)]Man(b1-4)GlcNAc(b1-4)[Fuc(a1-6)]GlcNAc
How it was run: as §1

[7] = molecular target: Gal(b1-4)GlcNAc(b1-3)Gal(b1-4)GlcNAc(b1-3)Gal(b1-4)GlcNAc(b1-2)[Gal(b1-4)GlcNAc(b1-3)Gal(b1-4)GlcNAc(b1-3)Gal(b1-4)GlcNAc(b1-6)]Man(a1-6)[Gal(b1-4)GlcNAc(b1-3)Gal(b1-4)GlcNAc(b1-3)Gal(b1-4)GlcNAc(b1-2)Man(a1-3)]Man(b1-4)GlcNAc(b1-4)[Fuc(a1-6)]GlcNAc
How it was run: as §1

[8] = molecular target: Gal(b1-4)GlcNAc(b1-3)Gal(b1-4)GlcNAc(b1-3)Gal(b1-4)GlcNAc(b1-3)Gal(b1-4)GlcNAc(b1-2)Man(a1-3)[Gal(b1-4)GlcNAc(b1-3)Gal(b1-4)GlcNAc(b1-3)Gal(b1-4)GlcNAc(b1-3)Gal(b1-4)GlcNAc(b1-2)Man(a1-6)]Man(b1-4)GlcNAc(b1-4)GlcNAc
How it was run: as §1

[9] = molecular target: Gal(b1-4)GlcNAc(b1-3)Gal(b1-4)GlcNAc(b1-3)Gal(b1-4)GlcNAc(b1-3)Gal(b1-4)GlcNAc(b1-2)Man(a1-3)[Gal(b1-4)GlcNAc(b1-3)Gal(b1-4)GlcNAc(b1-3)Gal(b1-4)GlcNAc(b1-3)Gal(b1-4)GlcNAc(b1-2)Man(a1-6)]Man(b1-4)GlcNAc(b1-4)[Fuc(a1-6)]GlcNAc
How it was run: as §1

[10] = molecular target: Gal(b1-4)GlcNAc(b1-3)Gal(b1-4)GlcNAc(b1-3)Gal(b1-4)GlcNAc(b1-3)Gal(b1-4)GlcNAc(b1-2)[Gal(b1-4)GlcNAc(b1-3)Gal(b1-4)GlcNAc(b1-3)Gal(b1-4)GlcNAc(b1-3)Gal(b1-4)GlcNAc(b1-6)]Man(a1-6)[Gal(b1-4)GlcNAc(b1-3)Gal(b1-4)GlcNAc(b1-3)Gal(b1-4)GlcNAc(b1-3)Gal(b1-4)GlcNAc(b1-2)Man(a1-3)]Man(b1-4)GlcNAc(b1-4)[Fuc(a1-6)]GlcNAc
How it was run: as §1

[11] = molecular target: Gal(b1-4)GlcNAc(b1-3)Gal(b1-4)GlcNAc(b1-3)Gal(b1-4)GlcNAc(b1-3)Gal(b1-4)GlcNAc(b1-3)Gal(b1-4)GlcNAc(b1-2)Man(a1-3)[Gal(b1-4)GlcNAc(b1-3)Gal(b1-4)GlcNAc(b1-3)Gal(b1-4)GlcNAc(b1-3)Gal(b1-4)GlcNAc(b1-3)Gal(b1-4)GlcNAc(b1-2)Man(a1-6)]Man(b1-4)GlcNAc(b1-4)GlcNAc
How it was run: as §1

[12] = molecular target: Gal(b1-4)GlcNAc(b1-3)Gal(b1-4)GlcNAc(b1-3)Gal(b1-4)GlcNAc(b1-3)Gal(b1-4)GlcNAc(b1-3)Gal(b1-4)GlcNAc(b1-2)Man(a1-3)[Gal(b1-4)GlcNAc(b1-3)Gal(b1-4)GlcNAc(b1-3)Gal(b1-4)GlcNAc(b1-3)Gal(b1-4)GlcNAc(b1-3)Gal(b1-4)GlcNAc(b1-2)Man(a1-6)]Man(b1-4)GlcNAc(b1-4)[Fuc(a1-6)]GlcNAc
How it was run: as §1

[13] = molecular target: Gal(b1-4)GlcNAc(b1-3)Gal(b1-4)GlcNAc(b1-3)Gal(b1-4)GlcNAc(b1-3)Gal(b1-4)GlcNAc(b1-3)Gal(b1-4)GlcNAc(b1-2)[Gal(b1-4)GlcNAc(b1-3)Gal(b1-4)GlcNAc(b1-3)Gal(b1-4)GlcNAc(b1-3)Gal(b1-4)GlcNAc(b1-3)Gal(b1-4)GlcNAc(b1-6)]Man(a1-6)[Gal(b1-4)GlcNAc(b1-3)Gal(b1-4)GlcNAc(b1-3)Gal(b1-4)GlcNAc(b1-3)Gal(b1-4)GlcNAc(b1-3)Gal(b1-4)GlcNAc(b1-2)Man(a1-3)]Man(b1-4)GlcNAc(b1-4)[Fuc(a1-6)]GlcNAc
How it was run: as §1

[14] = molecular target: Gal(b1-4)GlcNAc(b1-3)Gal(b1-4)GlcNAc(b1-3)Gal(b1-4)GlcNAc(b1-3)Gal(b1-4)GlcNAc(b1-3)Gal(b1-4)GlcNAc(b1-3)Gal(b1-4)GlcNAc(b1-2)Man(a1-3)[Gal(b1-4)GlcNAc(b1-3)Gal(b1-4)GlcNAc(b1-3)Gal(b1-4)GlcNAc(b1-3)Gal(b1-4)GlcNAc(b1-3)Gal(b1-4)GlcNAc(b1-3)Gal(b1-4)GlcNAc(b1-2)Man(a1-6)]Man(b1-4)GlcNAc(b1-4)GlcNAc
How it was run: as §1

[15] = molecular target: Gal(b1-4)GlcNAc(b1-3)Gal(b1-4)GlcNAc(b1-3)GalNAc
How it was run: as §1

[16] = molecular target: Gal(b1-4)GlcNAc(b1-3)Gal(b1-4)GlcNAc(b1-3)[Gal(b1-4)GlcNAc(b1-3)Gal(b1-4)GlcNAc(b1-6)]GalNAc
How it was run: as §1

[17] = molecular target: Gal(b1-4)GlcNAc(b1-3)Gal(b1-4)GlcNAc(b1-6)[Gal(b1-3)]GalNAc
How it was run: as §1

[18] = molecular target: Gal(b1-4)GlcNAc(b1-3)Gal(b1-4)[Fuc(a1-3)]GlcNAc(b1-3)Gal(b1-4)[Fuc(a1-3)]GlcNAc
How it was run: as §1

[19] = molecular target: Gal(b1-4)GlcNAc(b1-3)GalNAc
How it was run: as §1

[20] = molecular target: Gal(b1-4)GlcNAc(b1-3)[Fuc(a1-3)GlcNAc(b1-6)]Gal(b1-4)Glc
How it was run: as §1

[21] = molecular target: Gal(b1-4)GlcNAc(b1-3)[Gal(b1-4)GlcNAc(b1-6)]Gal(b1-4)GlcNAc
How it was run: as §1

[22] = molecular target: Gal(b1-4)GlcNAc(b1-3)[GlcNAc(b1-6)]Gal(b1-4)GlcNAc
How it was run: as §1

B1: Erv41-EDTA (Saccharomyces cerevisiae), Q04651 (protein)
chain: MKFLVNVALVFMVVYISYIYAAAPEHHHHHHDYDIPTTENLYFQGAMGYIDQQYVVDSQVRDTVQINMDIYVNTKCDWLQINVRDQTMDRKLVLEELQLEEMPFFIPYDTKVNDINEIITPELDEILGEAIPAEFREKLDTRSFFDESDPNKAHLPEFNGCHVFGSIPVNRVSGELQITAKSLGYVASRKAPLEELKFNHVINEFSFGDFYPYIDNPLDNTAQFNQDEPLTTYVYYTSVVPTLFKKLGAEVDTNQYSVNDYRYLYKDVAAKGDKMPGIFFKYNFEPLSIVVSDVRL
[1]
  glycan array binding signal (z-score): -0.228
[2]
  glycan array binding signal (z-score): 1.33
[3]
  glycan array binding signal (z-score): 0.622
[4]
  glycan array binding signal (z-score): -0.956
[5]
  glycan array binding signal (z-score): 0.872
[6]
  glycan array binding signal (z-score): 1.64
[7]
  glycan array binding signal (z-score): 2.65
[8]
  glycan array binding signal (z-score): 1.94
[9]
  glycan array binding signal (z-score): 2.2
[10]
  glycan array binding signal (z-score): 2.63
[11]
  glycan array binding signal (z-score): 0.141
[12]
  glycan array binding signal (z-score): 3.41
[13]
  glycan array binding signal (z-score): 1.44
[14]
  glycan array binding signal (z-score): -0.945
[15]
  glycan array binding signal (z-score): 0.781
[16]
  glycan array binding signal (z-score): 1.32
[17]
  glycan array binding signal (z-score): 0.677
[18]
  glycan array binding signal (z-score): -0.588
[19]
  glycan array binding signal (z-score): 0.248
[20]
  glycan array binding signal (z-score): 0.097
[21]
  glycan array binding signal (z-score): -1.1
[22]
  glycan array binding signal (z-score): 0.001
